# Data published in PMC8346516, “Lsm12 is an NAADP receptor and a two-pore channel regulatory protein required for calcium mobilization from acidic organelles” (Nature Communications, 2021).
# By UniProt entry, the sequences of proteins in these tests, tags left out.
# UniProt Q8NHX9: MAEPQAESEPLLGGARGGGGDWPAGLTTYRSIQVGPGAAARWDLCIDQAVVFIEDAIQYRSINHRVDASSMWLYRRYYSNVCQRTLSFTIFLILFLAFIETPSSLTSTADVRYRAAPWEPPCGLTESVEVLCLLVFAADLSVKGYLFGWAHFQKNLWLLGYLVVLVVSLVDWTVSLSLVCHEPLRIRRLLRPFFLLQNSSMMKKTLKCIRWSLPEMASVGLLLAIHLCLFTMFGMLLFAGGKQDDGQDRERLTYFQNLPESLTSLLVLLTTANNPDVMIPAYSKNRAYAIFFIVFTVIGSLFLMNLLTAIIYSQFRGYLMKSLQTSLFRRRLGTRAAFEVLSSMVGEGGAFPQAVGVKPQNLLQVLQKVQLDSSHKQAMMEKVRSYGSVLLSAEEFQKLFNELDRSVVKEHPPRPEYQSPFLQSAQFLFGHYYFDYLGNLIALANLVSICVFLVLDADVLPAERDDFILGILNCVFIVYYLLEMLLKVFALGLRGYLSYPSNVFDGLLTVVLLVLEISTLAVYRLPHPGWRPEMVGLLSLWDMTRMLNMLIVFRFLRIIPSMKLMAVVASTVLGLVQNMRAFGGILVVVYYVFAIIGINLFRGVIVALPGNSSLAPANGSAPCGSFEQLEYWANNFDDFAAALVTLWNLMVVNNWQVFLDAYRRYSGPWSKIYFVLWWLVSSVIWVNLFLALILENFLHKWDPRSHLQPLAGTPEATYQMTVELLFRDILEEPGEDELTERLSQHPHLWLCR
# No constants are given. Whether binding was seen depends on the method and setting. In cells and extracts the contact can be indirect. Some entries that bind do so weakly or less than the wild type.
# B1: Lsm12 ΔAD (domain or fragment, UniProt Q3MHD2 1-84)
# chain: MAAPPGEYFSVGSQVSCRTCQEQRLQGEVVAFDYQSKMLALKCPSSSGKPNHADILLINLQYVSEVEIINDRTETPPPLASLNV
# B2: Lsm12 Δlinker (protein, UniProt Q3MHD2)
# chain: MAAPPGEYFSVGSQVSCRTCQEQRLQGEVVAFDYQSKMLALKCPSSSGKPNHADILLINLQYVSEVESKLASKARTEKEEKLSQAYAISAGVSLEGQQLFQTIHKTIKDCKWQEKNIVVMEEVVITPPYQVENCKGKEGSALSHVRKIVEKHFRDVESQKILQRSQAQQPQKEAALSS
# B3: Lsm12 ΔLsm (protein, UniProt Q3MHD2)
# chain: MAAIINDRTETPPPLASLNVSKLASKARTEKEEKLSQAYAISAGVSLEGQQLFQTIHKTIKDCKWQEKNIVVMEEVVITPPYQVENCKGKEGSALSHVRKIVEKHFRDVESQKILQRSQAQQPQKEAALSS
# Molecular target: TPC2 (exogenous, in TPC2-expressing HEK293 cells) (human) (UniProt Q8NHX9)
# Assay: co-IP; co-immunoprecipitation of co-expressed TPC2 and Lsm12 WT or truncation mutants (Fig. 4e); WT also in the absence or presence of 100 µM NAADP (Fig. 4f)
row,Binder,binding
1,B1,binds
2,B2,binds
3,B3,no binding
